Measured values: patent US20100168443A1 (UNIVERSITY OF VIRGINIA PATENT FOUNDATION, priority 2006, published 2010)

Legend:
[1] = general procedure: Fmoc solid-phase peptide synthesis; SynPhase PA Rink Amide Linker derivatised lanterns (Mimotopes); DIC/HOBT; settings: whole synthesis, analytical HPLC-MS, scale of the general procedure 8 umol
[2] = general procedure: Fmoc solid-phase peptide synthesis; trityl resin; DIC/HOBT; settings: whole synthesis, scale 0.3 mmol

## Bombesin
[1]
  crude purity (method not given): 69%

## H-Proψ[CH2O]Gluψ[CH2O]Glnψ[CH2O]Glyψ[CH2O]Tyrψ[CH2O]Asn-NH2
[2]
  crude mass: 48 mg
  crude yield: 25% yield
  isolated mass: 19 mg
  isolated yield: 10% yield

## Neurokinin A
[1]
  crude purity (method not given): 84%

## Neurokinin B
[1]
  crude purity (method not given): 79%

## Somatostatin
[1]
  crude purity (method not given): 98%

## Substance P
[1]
  crude purity (method not given): 72%
